The list shows only some results of the screen, not a fair sample: it gathers tests that were run many times, whatever their T/C, doses with no T/C, and many T/C values between a quarter and a half above the control. Other doses and runs of a compound stand elsewhere. T/C: endpoint of the treated group in % of that of the vehicle group. Some doses have a count of surviving animals in place of a T/C: the source holds a T/C of zero for them, seemingly a mark for toxic or unscored doses. Some survivor counts are full or nearly so, which does not show that the dose was tolerated: the source hardly ever lists a survival T/C far under the control, and the zero likely stands for such cases as well. Survivors were counted at the toxicity check, usually on the fifth day, unless a day is given; later deaths do not show. Schedule codes are those of the source, taken here to give the interval after Q, in days (D) or hours (H), and the number of doses after X. For survival time, this PubChem deposit counts one and a half times the control or more as active, and values a quarter to a half above the control carry no call in these data; other NCI protocols may use other cut-offs.
System: L1210 leukemia ip in BDF1 mice, survival T/C
Test: NCI In Vivo Anticancer Drug Screen. Data for tumor model L1210 Leukemia (intraperitoneal) in B6D2F1 (BDF1) mice
Settings: higher T/C = longer survival
[1] = T/C endpoint: mean survival time, dose: 400.0 mg/kg/injection, schedule: Q04DX003 (ip), vehicle: Klucel (hydroxypropylcellulose) (HPC)
[2] = T/C endpoint: mean survival time, dose: 100.0 mg/kg/injection, schedule: Q04DX003 (ip), vehicle: saline with Tween-80
[3] = T/C endpoint: mean survival time, dose: 400.0 mg/kg/injection, schedule: Q01DX001 (ip), vehicle: carboxymethylcellulose (CMC)

CC1C(C(=O)c2ccccc2)C(c2ccccc2)OP1(c1ccccc1)(c1ccccc1)c1ccccc1 (stereo not drawn)
survivor count (T/C endpoint: mean survival time, dose: 100.0 mg/kg/injection, schedule: Q01DX001 (ip), vehicle: saline with Tween-80): 0 of 6 | survivor count (T/C endpoint: mean survival time, dose: 200.0 mg/kg/injection, schedule: Q01DX001 (ip), vehicle: saline with Tween-80): 0 of 6 | survivor count (T/C endpoint: mean survival time, dose: 400.0 mg/kg/injection, schedule: Q01DX001 (ip), vehicle: saline with Tween-80): 0 of 6

Cc1ccc(S(=O)(=O)OCC2CCC(COS(=O)(=O)c3ccc(C)cc3)O2)cc1 (stereo not drawn)
survivor count [1]: 3 of 3

CCCCCCCCCC[P+](=O)CCCCCCCCCC
survivor count [2]: 6 of 6

C=CC(OC)OC
survivor count (T/C endpoint: mean survival time, dose: 100.0 mg/kg/injection, schedule: Q04DX003 (ip), vehicle: saline): 3 of 6

N#CCc1ccc(N=Cc2ccc([N+](=O)[O-])s2)cc1
survivor count (T/C endpoint: mean survival time, dose: 100.0 mg/kg/injection, schedule: Q04DX003 (ip), vehicle: Klucel (hydroxypropylcellulose) (HPC)): 4 of 6 | survivor count [2]: 0 of 6 | survivor count (T/C endpoint: mean survival time, dose: 200.0 mg/kg/injection, schedule: Q04DX003 (ip), vehicle: Klucel (hydroxypropylcellulose) (HPC)): 0 of 6 | survivor count [1]: 0 of 6

O=C(Nc1cc(C(F)(F)F)ccc1Cl)Nc1cc(Cl)c(Oc2ccc(Cl)cc2)cc1S(=O)(=O)O
survivor count (T/C endpoint: mean survival time, dose: 400.0 mg/kg/injection, schedule: Q04DX003 (ip), vehicle: saline sonified): 0 of 6

CC1(C)N=C(N)N=C(N)N1c1cccc(OCCCc2ccccc2)c1
survivor count (T/C endpoint: mean survival time, dose: 100.0 mg/kg/injection, schedule: Q01DX001 (ip), vehicle: Klucel (hydroxypropylcellulose) (HPC)): 0 of 6 | survivor count (T/C endpoint: mean survival time, dose: 200.0 mg/kg/injection, schedule: Q01DX001 (ip), vehicle: Klucel (hydroxypropylcellulose) (HPC)): 0 of 6 | survivor count (T/C endpoint: mean survival time, dose: 400.0 mg/kg/injection, schedule: Q01DX001 (ip), vehicle: Klucel (hydroxypropylcellulose) (HPC)): 0 of 6

CSc1nc(N)nc2c1nnn2C1OC(CO)C(O)C1O (stereo not drawn)
survivor count (T/C endpoint: mean survival time, dose: 400.0 mg/kg/injection, schedule: Q01DX001 (ip), vehicle: saline): 1 of 6

CS(=O)(=O)O/C=C(\C#N)C(=O)O
survivor count [3]: 0 of 6

Cn1cnccc1=O
survivor count (T/C endpoint: mean survival time, dose: 100.0 mg/kg/injection, schedule: Q01DX009 (ip), vehicle: water): 6 of 6 | survivor count (T/C endpoint: mean survival time, dose: 200.0 mg/kg/injection, schedule: Q01DX009 (ip), vehicle: water): 6 of 6 | survivor count (T/C endpoint: mean survival time, dose: 400.0 mg/kg/injection, schedule: Q01DX009 (ip), vehicle: water): 6 of 6

CCC1([N+](=O)[O-])COP(=O)(N2CC2)OC1 (stereo not drawn)
survivor count [3]: 1 of 4

Cc1cnc(N(C)CC(=O)O)nc1-c1ccccc1O
survivor count (T/C endpoint: mean survival time, dose: 400.0 mg/kg/injection, schedule: Q04DX002 (ip), vehicle: Klucel (hydroxypropylcellulose) (HPC)): 3 of 3

CCOC(=O)C1CC(=O)c2cc(OC)c(OC)cc2C1c1ccc(OC)c(OC)c1 (stereo not drawn)
survivor count [3]: 6 of 6

C=CCc1cc(OC)c2c(c1OC)C(=O)c1cccc(OC)c1C2=O
survivor count (T/C endpoint: mean survival time, dose: 400.0 mg/kg/injection, schedule: Q04DX003 (ip), vehicle: saline with Tween-80): 1 of 6

CN(C)N=Nc1cccc(C(N)=O)c1
T/C (T/C endpoint: mean survival time, dose: 40.0 mg/kg/injection, schedule: Q01DX009 (ip), vehicle: Klucel (hydroxypropylcellulose) (HPC)): 133 % of control | T/C (T/C endpoint: mean survival time, dose: 80.0 mg/kg/injection, schedule: Q01DX009 (ip), vehicle: Klucel (hydroxypropylcellulose) (HPC)): 128 % of control | survivor count (T/C endpoint: mean survival time, dose: 160.0 mg/kg/injection, schedule: Q01DX009 (ip), vehicle: Klucel (hydroxypropylcellulose) (HPC)): 2 of 6 | T/C (T/C endpoint: median survival time, dose: 23.0 mg/kg/injection, schedule: Q01DX009 (ip), vehicle: steroid suspending solution): 130 % of control | T/C (T/C endpoint: median survival time, dose: 65.0 mg/kg/injection, schedule: Q04DX003 (ip), vehicle: steroid suspending solution): 125 % of control | survivor count (T/C endpoint: median survival time, dose: 108.0 mg/kg/injection, schedule: Q01DX009 (ip), vehicle: steroid suspending solution): 7 of 8 | T/C (T/C endpoint: median survival time, dose: 108.0 mg/kg/injection, schedule: Q04DX003 (ip), vehicle: steroid suspending solution): 145 % of control | T/C (T/C endpoint: median survival time, dose: 180.0 mg/kg/injection, schedule: Q01DX001 (ip), vehicle: steroid suspending solution): 130 % of control | survivor count (T/C endpoint: median survival time, dose: 300.0 mg/kg/injection, schedule: Q01DX001 (ip), vehicle: steroid suspending solution): 7 of 8 | survivor count (T/C endpoint: median survival time, dose: 500.0 mg/kg/injection, schedule: Q01DX001 (ip), vehicle: steroid suspending solution): 0 of 8
